Assay results from PMC9524669.
No constants are given. Whether binding was seen depends on the method and setting. In cells and extracts the contact can be indirect. Some results given as binding are weak or reduced against the parent protein; the word gives no strength.

By UniProt entry, the sequences of proteins in these tests, tags left out.
UniProt Q5SQI0: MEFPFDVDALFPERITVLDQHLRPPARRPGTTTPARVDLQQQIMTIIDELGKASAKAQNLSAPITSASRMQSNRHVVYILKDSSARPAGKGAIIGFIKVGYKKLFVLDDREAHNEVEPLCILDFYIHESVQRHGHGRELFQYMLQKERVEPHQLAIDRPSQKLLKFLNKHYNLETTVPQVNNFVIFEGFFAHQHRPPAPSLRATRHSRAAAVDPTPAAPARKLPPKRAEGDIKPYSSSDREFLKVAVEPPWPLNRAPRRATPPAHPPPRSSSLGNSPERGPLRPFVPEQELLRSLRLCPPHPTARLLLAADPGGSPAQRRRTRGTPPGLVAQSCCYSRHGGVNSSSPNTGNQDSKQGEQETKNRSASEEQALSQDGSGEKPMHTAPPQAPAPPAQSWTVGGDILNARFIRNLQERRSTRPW
UniProt P08670: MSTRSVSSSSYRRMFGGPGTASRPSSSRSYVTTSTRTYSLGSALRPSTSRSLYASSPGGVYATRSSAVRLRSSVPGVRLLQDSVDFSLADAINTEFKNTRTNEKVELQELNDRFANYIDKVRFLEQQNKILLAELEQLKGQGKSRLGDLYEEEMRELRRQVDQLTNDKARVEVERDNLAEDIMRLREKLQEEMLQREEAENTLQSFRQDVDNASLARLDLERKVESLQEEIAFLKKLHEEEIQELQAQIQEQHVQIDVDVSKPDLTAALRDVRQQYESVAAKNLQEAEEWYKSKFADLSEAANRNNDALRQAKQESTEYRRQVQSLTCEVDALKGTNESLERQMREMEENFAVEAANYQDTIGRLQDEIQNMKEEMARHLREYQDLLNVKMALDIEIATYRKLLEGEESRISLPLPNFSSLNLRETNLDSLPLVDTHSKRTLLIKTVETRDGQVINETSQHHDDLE

Biological target: α-tubulin acetyltransferase 1 (α-TAT1), Myc-tagged (UniProt Q5SQI0)
Assay: co-IP; proteins co-transfected in HEK293T; IP with anti-c-Myc tag affinity gel overnight at 4°C; wash buffer with 500 mM NaCl, 1% Triton X-100

binding: binds
Substance: FLAG-tagged vimentin (VIM) (from UniProt P08670 1-466)
